Source: US20130142788A1
No constants are given. Whether binding was seen depends on the method and setting. Some entries that bind do so weakly or less than the wild type.

Key:
[1] = molecular target: T1, mature myostatin released from latent complex following BMP-1 cleavage (human and mouse (mature sequences 100% identical)); experiment: ELISA, antigen coated
T1 sequence: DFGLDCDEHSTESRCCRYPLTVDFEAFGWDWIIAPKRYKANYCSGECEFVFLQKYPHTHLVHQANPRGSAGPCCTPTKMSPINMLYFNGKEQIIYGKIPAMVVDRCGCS

[2] = molecular target: T1, mature myostatin released from latent complex following BMP-1 cleavage (human and mouse (mature sequences 100% identical)); experiment: ELISA, antigen coated at 100 ng/well
[3] = molecular target: T1, mature myostatin released from latent complex following BMP-1 cleavage (human and mouse (mature sequences 100% identical)); experiment: ELISA: antigen coated at 100 ng/well, 10B3 titrated, anti-mouse IgG F(ab')2-peroxidase, TMB, OD450

Measured: binding

B1: mouse monoclonal antibody 10B3 (antibody, mouse IgG2a, V domains shown)
VH: EVQLQQSGPELVKPGASVKISCKASGYSFTGYFMHWVKQSHGNILDWIGNIYPYNGVSNYNQRFKAKATLTVDKSSSTAYMELRSLTSEDSAVYYCARRYYYGTGPADWYFDVWGTGTTVTVSS
VL: DIKMTQSPSSMYASLRERVTITCKASQDINSYLSWFQQKPGKSPKTLIYRANRLVDGVPSRFSGSGSGQDYSLTISSLEYEDMGIYYCLQCDEFPLTFGAGTKLELK
binds: all assays above
